PubChem BioAssay AID1259308 | NCATS – 2017
The whole screen tested about 59,000 reagents; shown is a part drawn at random. In the full data, about 1,510 (2.6%) are marked active. 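Calls use total luciferase alone and ignore viability, so some active siRNAs may act by altering cell number.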 Reagents against one gene are numbered here. Not all columns of the deposit are shown.

Purpose: 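Candidate targets for better recombinant protein yield in mammalian cells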 (primary screen)
Cell system: human HEK293 embryonic kidney cells stably expressing firefly luciferase (HEK-CMV-Luc2-Hygro)
Reagent: single siRNA against human genes, 0.8 pmol siRNA per well
Timing: 72 h
Measured: 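Reporter luminescence and viable-cell signal on separate replicate plates, given as percent of non-targeting control and median/MAD z-scores, plus per-cell luciferase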
Reading the numbers: total luciferase, z-score: higher = more reporter protein produced
Active means: 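Active when the median/MAD z-score for overall luciferase is greater than 3; a gene was taken forward for validation with new siRNAs if at least two of its three siRNAs passed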
Meaning of the calls: active = raised luciferase; inactive = no rise

TUBGCP2 (tubulin gamma complex component 2) #1 | total luciferase, z-score = 0.0466; Call = inactive
TUBGCP2 (tubulin gamma complex component 2) #2 | total luciferase, z-score = 0.47; Call = inactive
TUBGCP2 (tubulin gamma complex component 2) #3 | total luciferase, z-score = -0.587; Call = inactive
TIFA (TRAF interacting protein with forkhead associated domain) #1 | total luciferase, z-score = -1.67; Call = inactive
TIFA (TRAF interacting protein with forkhead associated domain) #2 | total luciferase, z-score = -0.185; Call = inactive
TIFA (TRAF interacting protein with forkhead associated domain) #3 | total luciferase, z-score = 0.121; Call = inactive
NCAM2 (neural cell adhesion molecule 2) #1 | total luciferase, z-score = -0.861; Call = inactive
NCAM2 (neural cell adhesion molecule 2) #2 | total luciferase, z-score = -0.806; Call = inactive
NCAM2 (neural cell adhesion molecule 2) #3 | total luciferase, z-score = 0.923; Call = inactive
TLX2 (T cell leukemia homeobox 2) #1 | total luciferase, z-score = 1.59; Call = inactive
TLX2 (T cell leukemia homeobox 2) #2 | total luciferase, z-score = -0.421; Call = inactive
TLX2 (T cell leukemia homeobox 2) #3 | total luciferase, z-score = 0.422; Call = inactive
ZNF718 (zinc finger protein 718) #1 | total luciferase, z-score = 1.26; Call = inactive
ZNF718 (zinc finger protein 718) #2 | total luciferase, z-score = -2.48; Call = inactive
ZNF718 (zinc finger protein 718) #3 | total luciferase, z-score = -0.42; Call = inactive
RIC3 (RIC3 acetylcholine receptor chaperone) #1 | total luciferase, z-score = 1.27; Call = inactive
RIC3 (RIC3 acetylcholine receptor chaperone) #2 | total luciferase, z-score = -0.488; Call = inactive
RIC3 (RIC3 acetylcholine receptor chaperone) #3 | total luciferase, z-score = -0.877; Call = inactive
LCT (lactase) #1 | total luciferase, z-score = -0.375; Call = inactive
LCT (lactase) #2 | total luciferase, z-score = -1.72; Call = inactive
LCT (lactase) #3 | total luciferase, z-score = 0.0117; Call = inactive
GTF2A1 (general transcription factor IIA subunit 1) #1 | total luciferase, z-score = 2.55; Call = inactive
GTF2A1 (general transcription factor IIA subunit 1) #2 | total luciferase, z-score = 0.398; Call = inactive
GTF2A1 (general transcription factor IIA subunit 1) #3 | total luciferase, z-score = 2.05; Call = inactive
LIN52 (lin-52 DREAM MuvB core complex component) #1 | total luciferase, z-score = -0.438; Call = inactive
LIN52 (lin-52 DREAM MuvB core complex component) #2 | total luciferase, z-score = -1.64; Call = inactive
LIN52 (lin-52 DREAM MuvB core complex component) #3 | total luciferase, z-score = 0.268; Call = inactive
OR6V1 (olfactory receptor family 6 subfamily V member 1) #1 | total luciferase, z-score = 1.25; Call = inactive
OR6V1 (olfactory receptor family 6 subfamily V member 1) #2 | total luciferase, z-score = 1.76; Call = inactive
OR6V1 (olfactory receptor family 6 subfamily V member 1) #3 | total luciferase, z-score = 0.122; Call = inactive
GINS1 (GINS complex subunit 1) #1 | total luciferase, z-score = -1.61; Call = inactive
GINS1 (GINS complex subunit 1) #2 | total luciferase, z-score = 0.971; Call = inactive
GINS1 (GINS complex subunit 1) #3 | total luciferase, z-score = -0.468; Call = inactive
MZB1 (marginal zone B and B1 cell specific protein) #1 | total luciferase, z-score = 2.58; Call = inactive
MZB1 (marginal zone B and B1 cell specific protein) #2 | total luciferase, z-score = -0.486; Call = inactive
MZB1 (marginal zone B and B1 cell specific protein) #3 | total luciferase, z-score = -0.0912; Call = inactive
SEMG1 (semenogelin 1) #1 | total luciferase, z-score = 0.681; Call = inactive
SEMG1 (semenogelin 1) #2 | total luciferase, z-score = -0.252; Call = inactive
SEMG1 (semenogelin 1) #3 | total luciferase, z-score = 1.05; Call = inactive
SRI (sorcin) #1 | total luciferase, z-score = 0.425; Call = inactive
SRI (sorcin) #2 | total luciferase, z-score = 1.75; Call = inactive
SRI (sorcin) #3 | total luciferase, z-score = 1.59; Call = inactive
